Reference: the supplement of paper PMC8728848
The list shows a part of the results.

Tests used:
Assay in all cases: glycan array binding signal (z-score within array); higher = stronger binding
Conditions in all cases: glycan notation: IUPAC condensed, linker removed
Fuc(a1-3)GlcNAc = target: Fuc(a1-3)GlcNAc
Method in brief: (§1)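 Glycan array binding is given as a within-array Z-score, which can be read as non-binding when negative. The arrays, 3228 of them, came from the Consortium for Functional Glycomics database and were retained only where the protein sequence was available. Z-scores were averaged across arrays of the same protein sequence at different concentrations or buffers and across linkers.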

[1] = target: Fuc(a1-3)[Gal(b1-4)]Glc6S
Method in brief: as §1

[2] = target: Fuc(a1-3)[Gal(b1-4)]GlcNAc
Method in brief: as §1

[3] = target: Fuc(a1-3)[Gal(b1-4)]GlcNAc(b1-2)Man
Method in brief: as §1

[4] = target: Fuc(a1-3)[Gal(b1-4)]GlcNAc(b1-2)Man(a1-3)[Fuc(a1-3)[Gal(b1-4)]GlcNAc(b1-2)Man(a1-6)]Man(b1-4)GlcNAc(b1-4)GlcNAc
Method in brief: as §1

[5] = target: Fuc(a1-3)[Gal(b1-4)]GlcNAc(b1-2)Man(a1-3)[Fuc(a1-3)[Gal(b1-4)]GlcNAc(b1-2)Man(a1-6)]Man(b1-4)GlcNAc(b1-4)[Fuc(a1-6)]GlcNAc
Method in brief: as §1

[6] = target: Fuc(a1-3)[Gal(b1-4)]GlcNAc(b1-3)Gal(b1-3)[Fuc(a1-4)]GlcNAc
Method in brief: as §1

[7] = target: Fuc(a1-3)[Gal(b1-4)]GlcNAc(b1-3)Gal(b1-4)[Fuc(a1-3)]GlcNAc
Method in brief: as §1

[8] = target: Fuc(a1-3)[Gal(b1-4)]GlcNAc(b1-3)Gal(b1-4)[Fuc(a1-3)]GlcNAc(b1-3)Gal(b1-4)[Fuc(a1-3)]GlcNAc
Method in brief: as §1

[9] = target: Fuc(a1-3)[Gal(b1-4)]GlcNAc(b1-3)GalNAc
Method in brief: as §1

[10] = target: Fuc(a1-3)[Gal(b1-4)]GlcNAc(b1-6)GalNAc
Method in brief: as §1

[11] = target: Fuc(a1-3)[Gal(b1-4)]GlcNAc(b1-6)[Gal(b1-3)GlcNAc(b1-3)]Gal(b1-4)Glc
Method in brief: as §1

[12] = target: Fuc(a1-3)[Gal(b1-4)]GlcNAc6S
Method in brief: as §1

[13] = target: Fuc(a1-3)[Gal3S(b1-4)]Glc
Method in brief: as §1

[14] = target: Fuc(a1-3)[Gal3S(b1-4)]GlcNAc
Method in brief: as §1

[15] = target: Fuc(a1-3)[Gal3S(b1-4)]GlcNAc6S
Method in brief: as §1

[16] = target: Fuc(a1-3)[GalNAc(b1-4)]GlcNAc
Method in brief: as §1

[17] = target: Fuc(a1-3)[GalNAc(b1-4)]GlcNAc6S
Method in brief: as §1

Fuc(a1-4)GlcNAc = target: Fuc(a1-4)GlcNAc
Method in brief: as §1

Fuc(b1-3)GlcNAc = target: Fuc(b1-3)GlcNAc
Method in brief: as §1

Gal(a1-2)Gal = target: Gal(a1-2)Gal
Method in brief: as §1

Gal(a1-3)Gal = target: Gal(a1-3)Gal
Method in brief: as §1

Gal(a1-3)Gal(b1-3)GlcNAc = target: Gal(a1-3)Gal(b1-3)GlcNAc
Method in brief: as §1

[18] = target: Gal(a1-3)Gal(b1-3)GlcNAc(b1-2)Man
Method in brief: as §1

[19] = target: Gal(a1-3)Gal(b1-3)GlcNAc(b1-2)Man(a1-3)[Gal(a1-3)Gal(b1-3)GlcNAc(b1-2)Man(a1-6)]Man(b1-4)GlcNAc(b1-4)GlcNAc
Method in brief: as §1

[20] = target: Gal(a1-3)Gal(b1-3)GlcNAc(b1-3)GalNAc
Method in brief: as §1

[21] = target: Gal(a1-3)Gal(b1-3)GlcNAc(b1-6)GalNAc
Method in brief: as §1

[22] = target: Gal(a1-3)Gal(b1-3)[Fuc(a1-4)]GlcNAc(b1-2)Man(a1-3)[Gal(a1-3)Gal(b1-3)[Fuc(a1-4)]GlcNAc(b1-2)Man(a1-6)]Man(b1-4)GlcNAc(b1-4)GlcNAc
Method in brief: as §1

Gal(a1-3)Gal(b1-4)Glc = target: Gal(a1-3)Gal(b1-4)Glc
Method in brief: as §1

Gal(a1-3)Gal(b1-4)GlcNAc = target: Gal(a1-3)Gal(b1-4)GlcNAc
Method in brief: as §1

[23] = target: Gal(a1-3)Gal(b1-4)GlcNAc(b1-2)Man
Method in brief: as §1

[24] = target: Gal(a1-3)Gal(b1-4)GlcNAc(b1-2)Man(a1-3)[Gal(a1-3)Gal(b1-4)GlcNAc(b1-2)Man(a1-6)]Man(b1-4)GlcNAc(b1-4)GlcNAc
Method in brief: as §1

[25] = target: Gal(a1-3)Gal(b1-4)GlcNAc(b1-3)GalNAc
Method in brief: as §1

[26] = target: Gal(a1-3)Gal(b1-4)GlcNAc(b1-6)GalNAc
Method in brief: as §1

[27] = target: Gal(a1-3)Gal(b1-4)[Fuc(a1-3)]GlcNAc
Method in brief: as §1

[28] = target: Gal(a1-3)Gal(b1-4)[Fuc(a1-3)]GlcNAc(b1-2)Man(a1-3)[Gal(a1-3)Gal(b1-4)[Fuc(a1-3)]GlcNAc(b1-2)Man(a1-6)]Man(b1-4)GlcNAc(b1-4)GlcNAc
Method in brief: as §1

Gal(a1-3)GalNAc = target: Gal(a1-3)GalNAc
Method in brief: as §1

B1: SAOUHSC 02783 (Staphylococcus aureus), Q5HD69 (protein)
chain: MIHSKKLTLGICLVLLIILIVGYVIMTKTNGRNAQIKDTFNQTLKLYPTKNLDDFYDKEGFRDQEFKKGDKGTWIVNSEMVIEPKGKDMETRGMVLYINRNTRTTKGYYFISEMTDDSNGRPKDDEKRYPVKMEHNKIIPTKPLPNDKLKKEIENFKFFVQYGNFKDINDYKDGDISYNPNVPSYSAKYQLNNDDYNVQQLRKRYDIPTKQAPKLLLKGDGDLKGSSVGSRSLEFTFVENKEENIYFTDSVQYTPSEDTRYESN
glycan array binding signal (z-score) (Fuc(a1-3)GlcNAc): -0.539
glycan array binding signal (z-score) [1]: 0.322
glycan array binding signal (z-score) [2]: 0.559
glycan array binding signal (z-score) [3]: -0.356
glycan array binding signal (z-score) [4]: -0.433
glycan array binding signal (z-score) [5]: -0.178
glycan array binding signal (z-score) [6]: -0.044
glycan array binding signal (z-score) [7]: 0.501
glycan array binding signal (z-score) [8]: -0.194
glycan array binding signal (z-score) [9]: 0.323
glycan array binding signal (z-score) [10]: 0.076
glycan array binding signal (z-score) [11]: -0.341
glycan array binding signal (z-score) [12]: 0.426
glycan array binding signal (z-score) [13]: -0.836
glycan array binding signal (z-score) [14]: -0.992
glycan array binding signal (z-score) [15]: -0.157
glycan array binding signal (z-score) [16]: -0.597
glycan array binding signal (z-score) [17]: -0.499
glycan array binding signal (z-score) (Fuc(a1-4)GlcNAc): -0.442
glycan array binding signal (z-score) (Fuc(b1-3)GlcNAc): 0.402
glycan array binding signal (z-score) (Gal(a1-2)Gal): 0.009
glycan array binding signal (z-score) (Gal(a1-3)Gal): -0.569
glycan array binding signal (z-score) (Gal(a1-3)Gal(b1-3)GlcNAc): -0.745
glycan array binding signal (z-score) [18]: -1.17
glycan array binding signal (z-score) [19]: 1.74
glycan array binding signal (z-score) [20]: -0.979
glycan array binding signal (z-score) [21]: -0.732
glycan array binding signal (z-score) [22]: 1.79
glycan array binding signal (z-score) (Gal(a1-3)Gal(b1-4)Glc): -0.012
glycan array binding signal (z-score) (Gal(a1-3)Gal(b1-4)GlcNAc): 1.21
glycan array binding signal (z-score) [23]: -0.596
glycan array binding signal (z-score) [24]: -0.416
glycan array binding signal (z-score) [25]: 0.099
glycan array binding signal (z-score) [26]: 0.313
glycan array binding signal (z-score) [27]: 0.861
glycan array binding signal (z-score) [28]: -0.315
glycan array binding signal (z-score) (Gal(a1-3)GalNAc): -0.777
